Measurements reported in the supplement of paper PMC7661543.
± gives the standard deviation of the averaged measurements. The effect of the compound repeats well; differences between the knockouts mostly do not.

System: ZR-75-1
Assay: relative cell number vs DMSO control (72 h) (% of DMSO); higher = less growth inhibition (more cells)
Description: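 QMAP-Seq: a pool of 5 breast cancer cell lines (ZR-75-1, SKBR3, HCC-38, MDA-MB-231, BT-20), each carrying 12 doxycycline-inducible Cas9 sgRNA perturbations (11 knockouts plus non-targeting sgNT), was treated with compounds for 72 h at four 10-fold doses (10 nM-10 uM or 1 nM-1 uM range). Barcodes were amplified and sequenced, and cell number was interpolated from 293T spike-in standard curves. The result is expressed as % of the median of DMSO wells. Two biological replicates.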

[1] = sgRNA knockout: sgATF3, 1000 nM
[2] = sgRNA knockout: sgATF4, 1000 nM
[3] = sgRNA knockout: sgATF6, 1000 nM
[4] = sgRNA knockout: sgATG7, 1000 nM
[5] = sgRNA knockout: sgERN1, 1000 nM
[6] = sgRNA knockout: sgHSF2, 1000 nM
[7] = sgRNA knockout: sgNFE2L2, 10 nM
[8] = sgRNA knockout: sgNFE2L2, 100 nM
[9] = sgRNA knockout: sgNFE2L2, 1000 nM
[10] = sgRNA knockout: sgSLC35F2, 10 nM
[11] = sgRNA knockout: sgSLC35F2, 100 nM
[12] = sgRNA knockout: sgSLC35F2, 1000 nM
[13] = sgRNA knockout: sgXBP1, 1000 nM
[14] = sgRNA knockout: sgATF3, 10000 nM
[15] = sgRNA knockout: sgATF4, 10000 nM
[16] = sgRNA knockout: sgATF6, 10000 nM
[17] = sgRNA knockout: sgATG7, 10000 nM
[18] = sgRNA knockout: sgERN1, 10000 nM
[19] = sgRNA knockout: sgHSF2, 10000 nM
[20] = sgRNA knockout: sgNFE2L2, 10000 nM
[21] = sgRNA knockout: sgSLC35F2, 10000 nM
[22] = sgRNA knockout: sgXBP1, 10000 nM

Row | Structure (SMILES) | relative cell number (sgRNA knockout: sgATF3, 10 nM) | relative cell number (sgRNA knockout: sgATF3, 100 nM) | relative cell number [1] | relative cell number (sgRNA knockout: sgATF4, 10 nM) | relative cell number (sgRNA knockout: sgATF4, 100 nM) | relative cell number [2] | relative cell number (sgRNA knockout: sgATF6, 10 nM) | relative cell number (sgRNA knockout: sgATF6, 100 nM) | relative cell number [3] | relative cell number (sgRNA knockout: sgATG7, 10 nM) | relative cell number (sgRNA knockout: sgATG7, 100 nM) | relative cell number [4] | relative cell number (sgRNA knockout: sgERN1, 10 nM) | relative cell number (sgRNA knockout: sgERN1, 100 nM) | relative cell number [5] | relative cell number (sgRNA knockout: sgHSF2, 10 nM) | relative cell number (sgRNA knockout: sgHSF2, 100 nM) | relative cell number [6] | relative cell number [7] | relative cell number [8] | also measured
1 | CC(C)(C#N)c1cc(Cn2cncn2)cc(C(C)(C)C#N)c1 [Anastrozole] | 90.2 ± 32 | 117.4 ± 1.1 | 92.9 ± 5.6 | 131 ± 66 | 114 ± 4.5 | 112 ± 22 | 84.6 ± 2 | 114 ± 18 | 87.5 ± 30 | 99.1 ± 15 | 102 ± 4 | 120 ± 34 | 86.8 ± 5.5 | 112 ± 38 | 94.6 ± 20 | 102 ± 14 | 98.2 ± 8 | 118 ± 18 | 80.5 ± 47 | 98.7 ± 16 | relative cell number (sgRNA knockout: sgATF3, 1 nM): 101 ± 36; relative cell number (sgRNA knockout: sgATF4, 1 nM): 102 ± 19; relative cell number (sgRNA knockout: sgATF6, 1 nM): 125 ± 29; relative cell number (sgRNA knockout: sgATG7, 1 nM): 139 ± 40; relative cell number (sgRNA knockout: sgERN1, 1 nM): 91.6 ± 12; relative cell number (sgRNA knockout: sgHSF2, 1 nM): 107 ± 11; relative cell number (sgRNA knockout: sgNFE2L2, 1 nM): 122.1 ± 0.74; relative cell number [9]: 111 ± 14; relative cell number (sgRNA knockout: sgSLC35F2, 1 nM): 104 ± 60; relative cell number [10]: 76.1 ± 51; relative cell number [11]: 101 ± 49; relative cell number [12]: 94 ± 21; relative cell number (sgRNA knockout: sgXBP1, 1 nM): 107 ± 3; relative cell number (sgRNA knockout: sgXBP1, 10 nM): 72.6 ± 23; relative cell number (sgRNA knockout: sgXBP1, 100 nM): 97.3 ± 12; relative cell number [13]: 103 ± 6.6
2 | Cc1nc(Nc2n[nH]c3c2CN(C(=O)N[C@H](CN(C)C)c2ccccc2)C3(C)C)c2sccc2n1 | 45.1 ± 9.2 | 43 ± 6.8 | 29 ± 6.8 | 49.4 ± 18 | 49.8 ± 2.3 | 18.8 ± 0.54 | 54.3 ± 15 | 35 ± 1.6 | 20.8 ± 4.2 | 49.8 ± 6.6 | 35.3 ± 2.3 | 27.3 ± 4 | 61 ± 5.6 | 52.3 ± 6.4 | 22.5 ± 1.8 | 48.7 ± 14 | 45.3 ± 11 | 23 ± 0.3 | 58.6 ± 2.7 | 30.9 ± 9.4 | relative cell number [14]: 3.33 ± 0.62; relative cell number [15]: 6.48 ± 1.9; relative cell number [16]: 4.03 ± 0.17; relative cell number [17]: 3.31 ± 0.52; relative cell number [18]: 4.53 ± 0.72; relative cell number [19]: 2.51 ± 0.55; relative cell number [9]: 23.3 ± 3.2; relative cell number [20]: 4.04 ± 1.4; relative cell number [10]: 43.1 ± 18; relative cell number [11]: 31.1 ± 2.8; relative cell number [12]: 15.7 ± 7.6; relative cell number [21]: 1.72 ± 0.41; relative cell number (sgRNA knockout: sgXBP1, 10 nM): 54.5 ± 0.58; relative cell number (sgRNA knockout: sgXBP1, 100 nM): 43.8 ± 12; relative cell number [13]: 24.7 ± 0.38; relative cell number [22]: 2.79 ± 0.91
3 | CCCS(=O)(=O)Nc1ccc(F)c(C(=O)c2c[nH]c3ncc(Cl)cc23)c1F [PLX4720] | 106 ± 5.1 | 94 ± 29 | 112 ± 17 | 108 ± 60 | 85.1 ± 2.8 | 72.6 ± 15 | 102 ± 22 | 80 ± 18 | 79.8 ± 19 | 97.92 ± 0.51 | 69.7 ± 31 | 150 ± 15 | 102 ± 16 | 102 ± 7 | 120 ± 22 | 98.7 ± 15 | 124 ± 23 | 101 ± 5.1 | 98.7 ± 29 | 144 ± 11 | relative cell number [14]: 118 ± 3.1; relative cell number [15]: 119 ± 3.7; relative cell number [16]: 126 ± 88; relative cell number [17]: 157 ± 50; relative cell number [18]: 141 ± 74; relative cell number [19]: 111 ± 30; relative cell number [9]: 103 ± 41; relative cell number [20]: 111 ± 52; relative cell number [10]: 111 ± 39; relative cell number [11]: 85.6 ± 87; relative cell number [12]: 98.2 ± 15; relative cell number [21]: 128 ± 37; relative cell number (sgRNA knockout: sgXBP1, 10 nM): 108 ± 3.7; relative cell number (sgRNA knockout: sgXBP1, 100 nM): 120 ± 6.5; relative cell number [13]: 117 ± 16; relative cell number [22]: 103 ± 52
